Data: patent US6645728
Where a chain is given by its changes, count along the chain named. These are yes or no findings as the source states them, for the method shown. Binding seen in cells or lysates may run through a third protein. Some results given as binding are weak or reduced against the parent protein; the word gives no strength.

By UniProt entry, the sequences of proteins in these tests, tags left out. Where a name states a change or a piece, a line headed by the entry shows the natural chain unless it says otherwise.
UniProt Q99558: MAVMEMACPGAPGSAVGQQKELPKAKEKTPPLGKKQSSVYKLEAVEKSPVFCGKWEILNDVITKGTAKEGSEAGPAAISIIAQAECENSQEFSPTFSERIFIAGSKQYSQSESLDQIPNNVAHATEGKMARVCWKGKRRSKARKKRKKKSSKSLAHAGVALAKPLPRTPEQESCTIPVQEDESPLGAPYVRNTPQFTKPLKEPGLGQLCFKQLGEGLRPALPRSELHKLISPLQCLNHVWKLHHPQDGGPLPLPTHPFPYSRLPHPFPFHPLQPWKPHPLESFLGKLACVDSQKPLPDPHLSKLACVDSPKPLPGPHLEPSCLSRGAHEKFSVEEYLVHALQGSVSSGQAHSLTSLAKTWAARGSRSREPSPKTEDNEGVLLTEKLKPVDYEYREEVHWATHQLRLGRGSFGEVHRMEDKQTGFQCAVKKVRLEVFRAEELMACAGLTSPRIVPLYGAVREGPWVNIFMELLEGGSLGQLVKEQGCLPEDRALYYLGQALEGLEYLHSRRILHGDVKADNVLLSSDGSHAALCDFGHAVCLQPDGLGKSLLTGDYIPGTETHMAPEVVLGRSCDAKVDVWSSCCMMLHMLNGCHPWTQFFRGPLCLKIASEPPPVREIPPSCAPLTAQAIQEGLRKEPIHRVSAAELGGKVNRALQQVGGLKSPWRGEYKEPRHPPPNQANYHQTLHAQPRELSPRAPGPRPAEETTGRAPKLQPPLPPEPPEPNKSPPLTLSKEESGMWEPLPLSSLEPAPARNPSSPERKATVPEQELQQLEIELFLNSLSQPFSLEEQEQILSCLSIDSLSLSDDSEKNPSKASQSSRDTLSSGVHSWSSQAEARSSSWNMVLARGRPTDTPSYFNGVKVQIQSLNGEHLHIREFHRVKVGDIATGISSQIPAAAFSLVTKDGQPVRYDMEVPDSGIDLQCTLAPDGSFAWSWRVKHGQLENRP

Key:
IKKα-T7 (murine) = biological target: T1, IKKα-T7 (murine) (UniProt Q60680); experiment: co-immunoprecipitation from 293 lysates, anti-T7 IP, anti-Myc blot
T1 sequence (looked up): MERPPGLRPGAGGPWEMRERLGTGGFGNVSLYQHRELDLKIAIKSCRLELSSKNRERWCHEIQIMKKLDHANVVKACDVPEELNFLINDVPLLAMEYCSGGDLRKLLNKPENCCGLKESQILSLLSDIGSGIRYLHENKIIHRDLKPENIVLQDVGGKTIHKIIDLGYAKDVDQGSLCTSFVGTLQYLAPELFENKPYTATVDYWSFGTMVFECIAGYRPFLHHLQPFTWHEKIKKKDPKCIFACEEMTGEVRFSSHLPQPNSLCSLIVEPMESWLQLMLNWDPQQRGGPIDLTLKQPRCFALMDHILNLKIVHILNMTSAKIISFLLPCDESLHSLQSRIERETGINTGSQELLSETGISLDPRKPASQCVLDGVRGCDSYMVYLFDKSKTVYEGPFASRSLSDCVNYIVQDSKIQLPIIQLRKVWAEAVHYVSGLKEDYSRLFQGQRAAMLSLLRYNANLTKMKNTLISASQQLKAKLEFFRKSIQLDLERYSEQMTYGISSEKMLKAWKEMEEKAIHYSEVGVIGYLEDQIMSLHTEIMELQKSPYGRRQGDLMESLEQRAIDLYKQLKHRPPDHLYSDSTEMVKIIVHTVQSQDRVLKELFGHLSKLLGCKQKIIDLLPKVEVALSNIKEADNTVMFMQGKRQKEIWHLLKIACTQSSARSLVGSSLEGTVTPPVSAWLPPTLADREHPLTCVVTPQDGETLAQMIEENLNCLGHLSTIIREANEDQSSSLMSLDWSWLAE

[1] = biological target: T2, kinase-deficient IKKα (K44M) (UniProt Q60680); experiment: IKKα immunoprecipitation with co-immunoprecipitated NIK, immunocomplex kinase reaction
T2 sequence (looked up): T1 sequence (looked up) with K44M

[2] = biological target: NIK-T7 (Homo sapiens (Human)) (UniProt Q99558); experiment: co-immunoprecipitation from 293 lysates, anti-T7 IP, anti-Myc blot
[3] = biological target: T2, kinase-deficient IKKα (K44M); experiment: co-immunoprecipitation with IKKα from transfected 293 cells (FIG. 4A)
[4] = biological target: T2, kinase-deficient IKKα (K44M); experiment: co-immunoprecipitation with IKKα from transfected 293 cells

Row | binding [1] | binding [2] | Substance | further results
1 |  |  | Myc-N570-947 (from UniProt Q99558 570-947) | binding (IKKα-T7 (murine)): binds
2 | binds |  | Myc-NIK (from UniProt Q99558 1-947) (enzyme) | 
3 |  | binds | Myc-N624-947 (from UniProt Q99558 624-947) | binding (IKKα-T7 (murine)): binds
4 |  | binds | Myc-N1-624 (from UniProt Q99558 1-624) | 
5 |  | binds | Myc-N1-366 (from UniProt Q99558 1-366) | 
6 |  | binds | Myc-N1-578 (from UniProt Q99558 1-578) | 
7 | binds |  | NIK-S549A (from UniProt Q99558 1-947) (enzyme) | 
8 |  |  | NIK-T559A (from UniProt Q99558 1-947) (enzyme) | binding [3]: binds; binding [4]: binds
9 | binds |  | NIK-T552A (from UniProt Q99558 1-947) (enzyme) | 
